Laboratory results as given in paper PMC10163288.
This is one part of the list.

B1: il2ra_site1_2b5i_normal_mot_HHH_b2_01822_000000237_0001_40_54_H_._HEEHE_1920_0001_0000300027_0000001_0 (protein)
chain: SERAKLIWILMEVAQELDVPSVNVRVRNGKVHITILGTDESAEELSRVAEEVAEELGVDVEVEVH
B2: il2ra_site2_3nfp_normal_mot_7cf5847eaa050a71bc877a27954f5424_0001_1_af2_000000114_0001_17_30_H_._c458a205a670bde904f9ae2de9a5ce79_0001_1_0001_0000100001_0000001 … (protein)
chain: SFAWRLERAVEEGNLEEVLKKYVEAAEERTGNPEDAESLALAVIEFVLPDPRLQEEAKKIVEEVG
B3: il2ra_site2_2erj_sap_17_mot_HHH_b1_06320_000000123_0001_1_19_H_._HHH_b1_03307_af2_0001_0000300011_0000001_0_0001 (protein)
chain: SSSSSSDKLHKMFELLNQLMSAKSEEEIERILEEIEKLAEETNSENLEELLRDLERLLSSSSSSS
B4: il2ra_site1_1z92_normal_mot_54e474eed2d0515e81978198f0f96ec2_0001_000000202_0001_15_30_H_._HHH_b1_02168_af2_0001_0000200012_0000001_0_af2pred_0001_af2pred_1_swa … (protein)
chain: SSSSSEEEEEEVKEVVERLVEELGLDEEEKKAFEKDAEQALKRGIDPRAVERVLELIAKLASSSS
B5: il2ra_site1_1z92_sap_19_mot_HHH_b2_06842_af2_000000285_0001_42_55_H_._acc43fb67f959da0cf4372ddf554ea88_0001_0001_0000500016_0000001_0_0001_af2pred_0001_af2pred_ … (protein)
chain: SSSSDRQERIIEILVRNIERALKAGNPRAARRLLEELERLAKELNDEEAEELVKELKELINSSSS
B6: il2ra_site2_2erj_normal_mot_HHH_b2_06411_000000092_0001_40_56_H_._HHH_b2_02829_0001_0000100019_0000001_0 (protein)
chain: SSSSDELERLYELAVLLVRLVFNNDEEEFEKVVKEAEELAEKLQSESAKEAIEFLERELGSSSSS
B7: il2ra_site1_1z92_normal_mot_c9a8daa1dfea21d1414aecde54be4f54_0001_1_af2_000000024_0001_32_46_H_._3abea1aeba1101aad97199a57a9882c4_0001_af2_0001_0000600021_00000 … (protein)
chain: DLEKDFEHAKKAGFDPRNAAKALIAALERINKVPPEEAIEILLRLAEELGDEELFEVVEKLEKDP
B8: il2ra_site2_2erj_sap_24_mot_HHH_b2_07386_000000253_0001_42_56_H_._HHH_b1_07606_0001_0000400017_0000001_0_0001 (protein)
chain: SSSSSDELRKVYEILVEALRLAAEGNPEEARELLEEAIEEAEERGDEAAARILREAVEQFSSSSS
B9: il2ra_site1_3nfp_sap_21_mot_HHH_b1_05128_000000175_0001_22_38_H_._HHH_b2_00648_0001_0001200017_0000001_0_0001_af2pred_0001_af2pred (protein)
chain: SSSSNWLEKALKRFVEDAVRSAGLSEEEQKELEELAEELARRGVDSREAARILAEVAFRLLSSSS
B10: il2ra_site1_2b5i_sap_7_mot_HHH_b1_02271_000000068_0001_1_16_H_._HHH_b1_06384_af2_0001_0000500030_0000001_0_0001 (protein)
chain: SSSDLDERIQKLFREASELHRKGDHEEAEKVVEEAIELAREAGDEHIAKQLEEMLEYIQRVSSSS
B11: il2ra_site1_3nfp_sap_16_mot_5dea99290cf7e133ebc5b763b21a7a39_0001_000000160_0001_34_49_H_._HHH_b1_06214_0001_0000500017_0000001_0_0001 (protein)
chain: NFVERLIEEIEKRDEELSELLREVYELAEKKQDPRLLELLIKALALIQLGNPEEAKKLLEEAAKR
B12: il2ra_site2_2erj_normal_mot_HHH_b1_05749_af2_000000010_0001_23_39_H_._HHH_b2_02672_0001_0000100005_0000001_0 (protein)
chain: SSSSDEELEELYRLAVELLRLVSEGDKEKIEELLEEIEQLAEELQSDTAREVLELVKELLSSSSS
B13: il2ra_site1_1z92_normal_mot_73a3237f21306322153cb43486d2ff88_0001_1_af2_000000006_0001_34_49_H_._66959ead3e6c57cb3ef8243f3eb758e0_0001_1_0001_0000300041_0000001 … (protein)
chain: NDVEEELREAVEKNDEEELRRFIELLLKDAGDPELVRQLLKILVKRLGLPPEVLERLEELLEELT
B14: il2ra_site1_3nfp_sap_11_mot_HHH_b2_06502_000000163_0001_42_55_H_._HHH_b1_00250_0001_0000300024_0000001_0_0001_af2pred_0001_af2pred_1_swapped (protein)
chain: SEELVERFARIAVETNNPRTLRKLLEELEKFLGNPEEAEKLLREALEKAGLSPEEVEELLQEVKK
B15: il2ra_site1_1z92_normal_mot_01209686ea234b34325f918445e6eade_0001_af2_000000154_0001_18_33_H_._f9c37336de6f1513c893807100b70f62_0001_af2_0001_0000400024_0000001 … (protein)
chain: SVEEELEELLRKKLPPEEVRLIIRDLERLKEEYGDPEHALKALLLLLRKAGNPESAEVVEEVIRH
B16: il2ra_site2_3nfp_sap_24_mot_HHH_b2_06150_000000217_0001_39_53_H_._HHH_b1_06048_0001_0000600027_0000001_0_0001 (protein)
chain: SSSSDKAEEYLRAALELLKLAVEEGDEFAVKSLLEAIELMAEDRRDEEAEEIVEEVKELLSSSSS
B17: il2ra_site1_3nfp_normal_mot_a5af7fda9936c3448022740dda542bc7_0001_af2_000000171_0001_1_14_H_._2ddac98514d63a720a07c52076301d76_0001_0001_0000200028_0000001_0 (protein)
chain: SLEWAAERALELGDPLDLRHVIRALELAVERLGDPRAREALEIARKLLEEGNPEEAARVILELLR
B18: il2ra_site1_1z92_sap_8_mot_HHH_b2_03374_af2_000000101_0001_1_20_H_._HHH_b2_03665_0001_0000500035_0000001_0_0001 (protein)
chain: SSSSDNLEAIVKVLVRVARLSEEAEEELERLARELAERGVSALEIMRLLDELAVRLAEELSSSSS
B19: il2ra_site2_3nfp_sap_9_mot_HHH_b1_05381_af2_000000150_0001_1_19_H_._HHH_b1_03255_0001_0000200011_0000001_0_0001 (protein)
chain: SSSSDKSERYLELAVELIEEALEQGDPEAARSHIEAAKLAAEALGDEEVKERLEELEELADSSSS

molecular target: il2ra, P01589; test: yeast display titration

Apparent Kd, inactive:
B1 no binding seen
B2 no binding seen
B3 no binding seen
B4 no binding seen
B5 no binding seen
B6 no binding seen
B7 no binding seen
B8 no binding seen
B9 no binding seen
B10 no binding seen
B11 no binding seen
B12 no binding seen
B13 no binding seen
B14 > 1210 nM
B15 no binding seen
B16 no binding seen
B17 no binding seen
B18 no binding seen
B19 no binding seen

Reprinted at random: 2 records from the list
Apparent Kd, inactive:
B19 no binding seen
B1 no binding seen
